Experimental data from paper PMC7819943, “Rice protein-binding microarrays: a tool to detect cis-acting elements near promoter regions in rice”.
This is one part of the list.

By UniProt entry, the sequences of proteins in these tests, tags left out.
UniProt Q0JBA9, entry or part of it: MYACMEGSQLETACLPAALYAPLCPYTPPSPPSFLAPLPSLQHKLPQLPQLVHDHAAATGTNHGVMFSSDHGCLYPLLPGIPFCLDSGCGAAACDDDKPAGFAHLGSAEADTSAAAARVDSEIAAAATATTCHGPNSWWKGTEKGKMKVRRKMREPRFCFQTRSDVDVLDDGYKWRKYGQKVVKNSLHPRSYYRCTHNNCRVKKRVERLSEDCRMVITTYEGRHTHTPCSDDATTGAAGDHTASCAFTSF

biological target: OsWRKY34 (Oryza sativa, UniProt Q0JBA9 1-250); assay: protein-binding microarray (RPBM); PBS, 2% BSA, 51.3 ng/ul salmon testes DNA, 50 uM zinc acetate, 200 nM TF, 25 C, 1 h; high values mean tight binding; conditions: protein: recombinant; tags: N-terminal polyhistidine and DsRed monomer fusion (pET32a); label: CyDye5-dUTP incorporated in the synthesized complementary strand; 3' TTTTT single-stranded linker to array surface; dsDNA, one strand shown
Outline: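 Binding signal is defined as the fluorescence intensity of each feature in arbitrary units, read on an Axon 4000B scanner. Transcription factors with N-terminal polyhistidine and DsRed fusions came from E. coli BL21-CodonPlus and were purified on Ni–NTA. They were incubated at 200 nM for 1 h at 25 °C on a custom Agilent array that had been made double-stranded with Cy5-dUTP, with 50 µM zinc acetate present, and the array was washed.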

Sequence	binding signal
TCTACGTTTAATATTTCAAATGTGTGTCCGTGTACTTAAACGGAGTCACCTAGTGCAG	8990 fluorescence intensity (a.u.)
AGGTCAACAACCAGTGTCAAGATCTGACCATGCAATTAGCCGGAGTCACCTAGTGCAG	17600 fluorescence intensity (a.u.)
TCATTGGTCTTTACTCAGTTTTGGGTCGTCTCTTGCAGACCGGAGTCACCTAGTGCAG	9470 fluorescence intensity (a.u.)
GTCTCCTCGACCTCACCACCCGTCCATCCCTACCTACCTCCGGAGTCACCTAGTGCAG	11100 fluorescence intensity (a.u.)
TCAACTGTACTGTACTCCACTCGCCGCACACACTGACACACGGAGTCACCTAGTGCAG	11200 fluorescence intensity (a.u.)
GAGCGGGGAGGCGGCGGATCTAGGGTTTGGTTGGGTTTTTCGGAGTCACCTAGTGCAG	15300 fluorescence intensity (a.u.)
TTTGTGCATCCCACATGTCAGAGAAGACTCGTCCAGTTCCCGGAGTCACCTAGTGCAG	8520 fluorescence intensity (a.u.)
TTCAATCTGCCTCCTCTCGCTATATATCTCGCACCAGGCTCGGAGTCACCTAGTGCAG	8320 fluorescence intensity (a.u.)
CTCTCCCATCCTCTCCACCTCAATCCCTCTCGCCGCCATGCGGAGTCACCTAGTGCAG	8040 fluorescence intensity (a.u.)
ACCATATGACTTATATATCTGTCGTCAGCTCATTTCTATGCGGAGTCACCTAGTGCAG	9740 fluorescence intensity (a.u.)
TGCAATCCATATCCATTCCTCTTTGCAGGCCTCCTAGATCCGGAGTCACCTAGTGCAG	8360 fluorescence intensity (a.u.)
TAATAATTCCTAGTCTTTGGAGTGAACATGCTGGTTTTTACGGAGTCACCTAGTGCAG	8230 fluorescence intensity (a.u.)
GCTTCCGCTGCTGCGAGCGATCCGAGGGGCGGGGAGAAAACGGAGTCACCTAGTGCAG	8660 fluorescence intensity (a.u.)
ATTGTTGGTTTGCTTGTCCCGTCGATCTCATCTATTACTGCGGAGTCACCTAGTGCAG	8700 fluorescence intensity (a.u.)
CCACCTACCATATGGCGTTGGCCGTTGAAACATCCCCTGTCGGAGTCACCTAGTGCAG	8980 fluorescence intensity (a.u.)
CCCATCCATAATCTTGGACTAATTCGCGAGACGAATCTATCGGAGTCACCTAGTGCAG	8170 fluorescence intensity (a.u.)
TTTGTGGGTTTGGGGCTGACTAGATACAGTTGTCGTTTTGCGGAGTCACCTAGTGCAG	12100 fluorescence intensity (a.u.)
TGTGGTGCTTTTTTTTTTAGAGAATGGTATTTTTTTACATCGGAGTCACCTAGTGCAG	10400 fluorescence intensity (a.u.)
ACTGGGGTATGGAGGTGGTGCCAACATTTTAATTCTTCGTCGGAGTCACCTAGTGCAG	10500 fluorescence intensity (a.u.)
GGTTGTTGTTGATGTATGACAAGACTAGCTATTACCTATCCGGAGTCACCTAGTGCAG	8790 fluorescence intensity (a.u.)
CAGGTCCACCCTCAGGGCTTCCCCTACCTTGTCGTTCTCCCGGAGTCACCTAGTGCAG	12800 fluorescence intensity (a.u.)
GTTCTCCATGGACGCCTTGATCTGCTCCGGCTTGGTGTTCCGGAGTCACCTAGTGCAG	10800 fluorescence intensity (a.u.)
AACCGACCAGCGACCCCACGGCGTCATTCCGTTGGGCCCACGGAGTCACCTAGTGCAG	10000 fluorescence intensity (a.u.)
GCGTCCGCCATCGAATCCAACGAGCCAGCAAGTTTCATCACGGAGTCACCTAGTGCAG	8720 fluorescence intensity (a.u.)
TACTCTATATAATGTAATTGCACTAATATACTTTGTTTTCCGGAGTCACCTAGTGCAG	9760 fluorescence intensity (a.u.)
ACGCGCCCGTCCCTTCCCTCGCCGGTCCGCATGCCGCTGTCGGAGTCACCTAGTGCAG	8440 fluorescence intensity (a.u.)
ACTACCATGCTTCATATGATTGAGCGCGCTGCAATTTGCACGGAGTCACCTAGTGCAG	8110 fluorescence intensity (a.u.)

Retrieved one by one from the list above (two):
Sequence	binding signal
TAATAATTCCTAGTCTTTGGAGTGAACATGCTGGTTTTTACGGAGTCACCTAGTGCAG	8230 fluorescence intensity (a.u.)
CCACCTACCATATGGCGTTGGCCGTTGAAACATCCCCTGTCGGAGTCACCTAGTGCAG	8980 fluorescence intensity (a.u.)

A run of entries of the results above, for reference:
Sequence	binding signal
ACGCGCCCGTCCCTTCCCTCGCCGGTCCGCATGCCGCTGTCGGAGTCACCTAGTGCAG	8440 fluorescence intensity (a.u.)
ACTACCATGCTTCATATGATTGAGCGCGCTGCAATTTGCACGGAGTCACCTAGTGCAG	8110 fluorescence intensity (a.u.)

Later entries:

Sequence	binding signal
AGGTAACTGTATTCGTTTGTTCCCTTCAACGGCTCAATCCCGGAGTCACCTAGTGCAG	8240 fluorescence intensity (a.u.)
GACATAATAATCCGTGCATGTTTCCTAACTCTCAGATAATCGGAGTCACCTAGTGCAG	10000 fluorescence intensity (a.u.)
CAAACCACCACCACTTTCCACTCACTAAAAACATCACATCCGGAGTCACCTAGTGCAG	9020 fluorescence intensity (a.u.)
ACTCCAGCACCTTCTCGTCCATGATCCGCGGCGGCCCCAGCGGAGTCACCTAGTGCAG	9330 fluorescence intensity (a.u.)
CCCTCACTGGATTGGCTCTCATCTCATCGATCCTGCTCACCGGAGTCACCTAGTGCAG	8580 fluorescence intensity (a.u.)
GTGGAACGACCACCTCACGGCCCTTACCCGCCTTATCTTCCGGAGTCACCTAGTGCAG	10100 fluorescence intensity (a.u.)
CTATATCGCACGTACTCCGGTACCAACGATCCTATACCATCGGAGTCACCTAGTGCAG	9910 fluorescence intensity (a.u.)
AGCCTACACCAGTACACCACCATCTTCCTCGTTCGGTTCCCGGAGTCACCTAGTGCAG	13800 fluorescence intensity (a.u.)
TCTTCGCCTTCCGCCAGGAGCTCGTCTGCACGACGTTTTCCGGAGTCACCTAGTGCAG	10000 fluorescence intensity (a.u.)
CCATCACGCAGCCGCTCCGGTTGCGTCTTTGTCGGCCACTCGGAGTCACCTAGTGCAG	8330 fluorescence intensity (a.u.)
ATCCCACCCTACACTTTCCATTATCCAAACGCACTCTTACCGGAGTCACCTAGTGCAG	8310 fluorescence intensity (a.u.)
ACATCCTTTGCATCATCTGGGCTGTTAGCAGTTCACGTTTCGGAGTCACCTAGTGCAG	9680 fluorescence intensity (a.u.)
TATATAAGCGCATTTGCCATGACACTATCGTTCATCACCACGGAGTCACCTAGTGCAG	9700 fluorescence intensity (a.u.)
CGAGTGTGAGTGGCGGTGGTTTTGGGGTGAAAGTGCATGTCGGAGTCACCTAGTGCAG	8390 fluorescence intensity (a.u.)
GATCTCACACTGACTACGGGCCCCACCTGTCACACACACTCGGAGTCACCTAGTGCAG	8530 fluorescence intensity (a.u.)
CGTCTATCTAAAATGTTTCCGTACCATTAAGAGCTCCTTTCGGAGTCACCTAGTGCAG	9300 fluorescence intensity (a.u.)
CATTTTGTCACGGCTTTATAAATTACTTCAGTTCTTGTGACGGAGTCACCTAGTGCAG	9940 fluorescence intensity (a.u.)
AGCTACCACACCTTGGCCTAACTTAACGGAGATACTTTTTCGGAGTCACCTAGTGCAG	9420 fluorescence intensity (a.u.)
TAGATATCTTGTAGCAAATTTTGTTCAGTACCGTATTTTTCGGAGTCACCTAGTGCAG	9730 fluorescence intensity (a.u.)
TCCTTTCTTCCGGTTCTCCTATCCCCTGTTGCTCTTTGTTCGGAGTCACCTAGTGCAG	8260 fluorescence intensity (a.u.)
ACGGGCACTCGCTTCTCCACTAGGGTTTCTCGCCGCCGCCCGGAGTCACCTAGTGCAG	9300 fluorescence intensity (a.u.)
TTAGATGTCACATCGGATGTTTGACCAGATGTCGGAAGGGCGGAGTCACCTAGTGCAG	8260 fluorescence intensity (a.u.)
GTCCCGTGCCGCCGCCGCCTTCGCTCCTCCCCGCCGTACTCGGAGTCACCTAGTGCAG	8070 fluorescence intensity (a.u.)
TACTGTACTTCCTTTCACTACACCATGACACTAGATTACCCGGAGTCACCTAGTGCAG	10200 fluorescence intensity (a.u.)
TATGATGGTTGGGGCTGTCACAGCTGCGCTTGGTGCTTCTCGGAGTCACCTAGTGCAG	8260 fluorescence intensity (a.u.)
CCGCACCGCCGGATGCCGCCGCCGCTCGCTCTCGCTGTCCCGGAGTCACCTAGTGCAG	8430 fluorescence intensity (a.u.)
AGAAATAGGGTTATGAAATTCAGCAACATATGTGATTTGACGGAGTCACCTAGTGCAG	8240 fluorescence intensity (a.u.)
